Test results from paper doi:10.1101/2025.11.09.687461.
Results are given in words; binding and its absence hold for the method and conditions named. In cells and extracts the contact can be indirect.

Amino acid sequences for entries named in this document (tags omitted). A change or cut given only in a name is not applied to a line headed by its entry. Chains listed by the source or under a name are the forms on record and can include a tag or linker. Residues count along the entry.
UniProt Q04206: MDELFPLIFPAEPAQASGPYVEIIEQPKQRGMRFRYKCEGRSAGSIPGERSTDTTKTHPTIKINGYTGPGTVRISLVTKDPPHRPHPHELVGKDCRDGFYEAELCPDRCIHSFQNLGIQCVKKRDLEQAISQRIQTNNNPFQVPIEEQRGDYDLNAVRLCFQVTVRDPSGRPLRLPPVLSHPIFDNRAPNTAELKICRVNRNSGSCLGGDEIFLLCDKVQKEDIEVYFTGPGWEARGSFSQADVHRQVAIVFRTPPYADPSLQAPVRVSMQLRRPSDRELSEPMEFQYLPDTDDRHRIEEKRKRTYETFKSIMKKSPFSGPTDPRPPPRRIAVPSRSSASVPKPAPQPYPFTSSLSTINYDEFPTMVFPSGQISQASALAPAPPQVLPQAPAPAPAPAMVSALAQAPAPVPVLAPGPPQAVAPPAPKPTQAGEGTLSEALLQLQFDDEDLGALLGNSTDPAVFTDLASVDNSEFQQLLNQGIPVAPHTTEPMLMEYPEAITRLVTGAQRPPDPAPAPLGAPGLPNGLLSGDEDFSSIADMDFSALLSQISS
GFP-tagged mutant p65 R198* (GFP-p65_R198*): residues 1-197 of Q04206
UniProt P19838, residues 1-433: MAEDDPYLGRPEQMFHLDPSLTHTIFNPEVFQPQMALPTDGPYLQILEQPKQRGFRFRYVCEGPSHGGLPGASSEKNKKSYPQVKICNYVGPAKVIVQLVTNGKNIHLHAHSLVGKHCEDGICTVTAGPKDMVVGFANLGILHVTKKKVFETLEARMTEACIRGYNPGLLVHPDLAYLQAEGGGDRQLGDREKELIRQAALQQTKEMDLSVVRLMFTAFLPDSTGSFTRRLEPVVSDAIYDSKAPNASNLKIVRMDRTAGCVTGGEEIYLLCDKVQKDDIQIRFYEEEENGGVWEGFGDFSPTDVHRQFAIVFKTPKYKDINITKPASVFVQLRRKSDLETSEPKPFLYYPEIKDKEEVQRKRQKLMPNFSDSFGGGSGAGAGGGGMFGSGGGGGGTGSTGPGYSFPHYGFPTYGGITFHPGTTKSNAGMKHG

Assays:
[1] = target: GFP-tagged mutant p65 R198* (GFP-p65_R198*) (human) (UniProt Q04206); experiment: co-IP
[2] = target: wild type p65 (RELA) (human (endogenous in HEK293T)) (UniProt Q04206); experiment: co-IP

| Substance | binding [1] | binding [2] |
| --- | --- | --- |
| p50 (NF-kB1 p105/p50) (from UniProt P19838 1-433) | no binding | – |
| GFP-tagged mutant p65 R198* (GFP-p65_R198*) (from UniProt Q04206-1 1-197) (domain or fragment) | – | no binding |
